Results as given in PubChem BioAssay AID624291 (National Center for Advancing Translational Sciences (NCATS), 2012).
Hit rate of the full screen: of about 350,000 compounds, about 220 (0.063%) were called active. Inconclusive means that the source gave no clear call. Such entries were picked first, then a sample of the others. Calls come from the whole dose curve; as a rule, active = well fitted activation curve with a large enough effect; inconclusive = small, poorly fitted or top-dose-only effect; inactive = no such curve, though single readings can be large or run the other way. Potencies of inconclusive entries are doubtful fits and often do not repeat.

Test: qHTS for Activators of Integrin-Mediated Alleviation for Muscular Dystrophy; note: nearly all actives have a fitted effect of over 60% in size;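 for activation: 100% = response of the positive control SU9516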
Conditions: alpha7betagal myoblasts, beta-gal FDG fluorescence, 48 h; activation: at 38.3 µM (top of the series)
Method in brief: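 alpha7betagal+/- myoblasts (passage 13, 250/well) treated 48 h at 37C with compounds at 1:260 dilution of DMSO stock. Lysed, then beta-galactosidase activity read as FDG fluorescence (ex 480/em 540) after 30 min, with pre-read for autofluorescence.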
Potency is the fitted concentration of half-maximal effect.

Row | SMILES | Potency | activation
1 | Cc1cccc2nc(CSc3nc4ccccc4o3)cn12 | inactive | –
2 | Cc1nc2ccccc2c(=O)n1NC(=O)c1ccc([N+](=O)[O-])cc1 | inactive | –
3 | O=C(COc1cccc(-n2cnnn2)c1)Nc1ccc([N+](=O)[O-])cc1 | inactive | –
4 | Cc1ccc(S(=O)(=O)N(CC(O)CN2CCCCC2)c2cccc([N+](=O)[O-])c2)cc1 (stereo unspecified) | inconclusive: 31.6 µM [activator, partial curve, poor fit] | –
5 | O=C(CN1C(=O)NC2(CCCCC2)C1=O)Nc1ccc2c(c1)OCCCO2 | inactive | –
6 | CCC(C)c1ccc(O)c(NC(=S)NC(=O)c2cccnc2)c1 (stereo unspecified) | inactive | –
7 | CCN(c1ccccc1)S(=O)(=O)c1cc(C(=O)NCC(c2ccc(OC)cc2)N(C)C)ccc1C (stereo unspecified) | inactive | –
8 | CC1CCC(NC(=O)COC(=O)CSc2ccc(C(N)=O)cc2[N+](=O)[O-])CC1 (stereo unspecified) | – | inconclusive: -39.4% [activator]
9 | Nc1nc(SCC(=O)Nc2ccc(F)cc2)[nH]c(=O)c1NC(=O)c1ccc(F)c(F)c1 | inconclusive: 15.8 µM [activator, single point] | –
10 | COc1ccc(N2C(=O)CC(N3CCN(Cc4ccc5c(c4)OCO5)CC3)C2=O)cc1 (stereo unspecified) | inconclusive: 22.4 µM [activator, single point] | –
11 | CCOc1ccc(NC(=O)CN2C(=O)CSC2=O)cc1 | – | inconclusive: -62.1% [activator]
12 | CC(C)OCCCNC(=O)c1ccc(CS(=O)(=O)c2cccc(C(F)(F)F)c2)o1 | inconclusive: 28.2 µM [activator, single point] | –
13 | O=C(NCc1ccccn1)C1CCN(S(=O)(=O)c2ccc(Br)cc2)CC1 | inconclusive: 3.98 µM [activator, single point] | –
14 | O=C(O)c1cc(S(=O)(=O)N2CCCCC2)sc1Cl | inactive | –
15 | COc1ccc(CN2CC(C(=O)NCCCN3CCN(C)CC3)CC2=O)cc1 (stereo unspecified) | inconclusive: 20 µM [activator, single point] | –
16 | Cc1ccc(-c2cc(C(=O)Nc3c(C)n(C)n(-c4ccccc4)c3=O)no2)cc1 | inconclusive: 3.16 µM [activator, single point] | –
17 | COc1ccc(Cl)cc1NC(=O)c1cccc(S(=O)(=O)Nc2c(C)n(C)n(-c3ccccc3)c2=O)c1 | inactive | –
18 | COc1ccc(S(=O)(=O)N2CCN(c3ccc(F)cc3)CC2)cc1OC | inconclusive: 5.01 µM [activator, single point] | –
19 | O=C(CSc1nnc2c(n1)[nH]c1ccc(F)cc12)Nc1ccccc1F | inconclusive: 1.41 µM [activator, partial curve, poor fit] | –
20 | CCOC(=O)N1CCN(c2ncc(C(F)(F)F)cc2Cl)CC1 | inconclusive: 3.98 µM [activator, partial curve, poor fit] | –
21 | Cn1c2ccccc2c2cc(C(=O)NNC(=O)CCl)sc21 | inactive | –
22 | CC(=O)c1ccc(OCc2cc(C(=O)N(C)C(C)c3nccs3)no2)cc1 (stereo unspecified) | inconclusive: 11.2 µM [activator, single point] | –
23 | Cc1cccc(NC(=S)N2CCN(S(C)(=O)=O)CC2)c1 | inconclusive: 5.01 µM [activator, single point] | –
24 | O=C(NNC1=Nc2cc([N+](=O)[O-])ccc2OC1)c1ccccc1Cl | inactive | –

Row | SMILES | Potency | activation
25 | O=C(NN1C(=O)c2ccccc2NC1c1ccc([N+](=O)[O-])o1)c1ccccc1 (stereo unspecified) | inactive | –
26 | O=C1CC(N(O)c2ccccc2)C(=O)N1c1ccc(Cl)c(Cl)c1 (stereo unspecified) | inconclusive: 11.2 µM [activator, single point] | –
27 | NC(=S)n1[nH]c(-c2ccc([N+](=O)[O-])cc2)c(N=Nc2ccccc2[N+](=O)[O-])c1=O | inconclusive: 3.16 µM [activator, single point] | –
28 | Cc1nnc(NCCc2ccccc2)c2ccccc12 | inconclusive: 28.2 µM [activator, single point] | –
29 | Clc1ccc(SCCOCCN2CCc3ccccc3C2)cc1 | inactive | –
30 | O=C(NC(=S)Nc1ccccc1)C1CCCCC1 | inactive | –
31 | N#Cc1c(-c2ccccc2)nc(-c2ccccc2)nc1N1CCOCC1 | inactive | –
32 | CCN(CC)C(=O)CSc1nnc(CSc2ncccn2)n1C | inconclusive: 5.01 µM [activator, single point] | –
33 | COc1cc(C(=O)OCC(=O)c2ccccc2)cc2c1OCCO2 | – | inconclusive: -27.1% [activator]
34 | O=[N+]([O-])c1cc(Br)c(O)c(/C=N/Nc2nnnn2-c2cccc3ccccc23)c1 | inactive | –
35 | COC(=O)c1ccc(C23CC4(C2)[C@H](CN(Cc2ccc(C(F)(F)F)cc2)[C@@H]4c2ccccc2)C3c2ccccc2)cc1 (stereo partly specified) | inactive | –
36 | CCCCOC(=O)Cc1c(O)c2ccccc2[nH]c1=O | inactive | –
37 | O=C(O)c1cccc(NS(=O)(=O)c2cc(S(=O)(=O)c3ccc(Cl)cc3)ccc2Cl)c1 | inconclusive: 28.2 µM [activator, single point] | –
38 | O=C(Cn1cnc2ccccc2c1=O)Nc1nnc(SCc2ccc(Cl)cc2)s1 | inconclusive: 1.41 µM [activator, partial curve, poor fit] | –
39 | Cc1[nH][nH]c(=O)c1N=Nc1ccccc1Cl | inconclusive: 28.2 µM [activator, partial curve, poor fit] | –
40 | CC(=O)Oc1ccccc1/C=C/c1nc2ccccc2c(=O)o1 | inactive | –
41 | O=C(COC(=O)/C=C/c1ccc(C(F)(F)F)cc1)NC1CCS(=O)(=O)C1 (stereo unspecified) | inactive | –
42 | COc1ccccc1-n1c(SCC(=O)N2CCOCC2)nc2cccnc21 | inconclusive: 31.6 µM [activator, partial curve, poor fit] | –
43 | CCn1ccnc1CN1CCc2c([nH]c3ccccc23)C1CC(C)C (stereo unspecified) | inconclusive: 3.16 µM [activator, partial curve, poor fit] | –
44 | O=C(Nc1ccccc1C(=O)O)c1ccccc1 | inactive | –
45 | CC(Sc1nc(-c2ccccc2)c(-c2ccccc2)[nH]1)C(=O)NCC1CCCO1 (stereo unspecified) | inactive | –
46 | CCn1c(SCC(=O)N2CCOCC2)nnc1-c1ccco1 | inconclusive: 1 µM [activator, single point] | –
47 | CNC(=O)c1[nH]cnc1C(=O)N[C@@H](Cc1ccccc1)C(=O)OCc1ccccc1 | inactive | –
48 | CN1CCSc2ccc(C(=O)Nc3ccc(Cl)cc3)cc21 | inconclusive: 2.24 µM [activator, partial curve, poor fit] | –

Record cards (already shown). Order of values: Potency | activation
O=C(Cn1cnc2ccccc2c1=O)Nc1nnc(SCc2ccc(Cl)cc2)s1 as listed: inconclusive: 1.41 µM [activator, partial curve, poor fit] | –
COC(=O)c1ccc(C23CC4(C2)[C@H](CN(Cc2ccc(C(F)(F)F)cc2)[C@@H]4c2ccccc2)C3c2ccccc2)cc1 (stereo partly specified) as listed: inactive | –

Following part.

Row | SMILES | Potency | activation
49 | COc1ccc(C2Nc3ccccc3C(=O)N2NC(C)=O)c(OC)c1 (stereo unspecified) | inconclusive: 28.2 µM [activator, single point] | –
50 | Cc1ccc(NC(=O)[C@@H](NC(=O)c2cccc(S(=O)(=O)N3CCOCC3)c2)C(C)C)cc1C | inconclusive: 15.8 µM [activator, single point] | –
51 | COn1c(=O)c(-c2ccc(C)cc2)[n+]([O-])c2ccccc21 | inconclusive: 3.55 µM [activator, partial curve, poor fit] | –
52 | Cc1nnc(NC(=O)CSCc2ccccc2)s1 | inactive | –
53 | CCOc1ccccc1NC(=S)N(CCN(C)C)C(C)c1ccncc1 (stereo unspecified) | inconclusive: 2 µM [activator, partial curve, poor fit] | –
54 | COCCn1c(=N)c(S(=O)(=O)c2ccc(F)cc2)cc2c(=O)n3ccccc3nc21 | inactive | –
55 | O=C(CSc1nccc(=O)[nH]1)c1cc2ccccc2o1 | inconclusive: 7.08 µM [activator, partial curve, poor fit] | –
56 | CC(C)c1c(C(=O)N/N=C/C=C/c2ccccc2)nnn1-c1nonc1N | inactive | –
57 | CCc1sc(NC(=O)CN2CCC(C(N)=O)CC2)nc1-c1ccccc1 | inconclusive: 1.78 µM [activator, partial curve, poor fit] | –
58 | CN(C)N=Nc1ccc(S(=O)(=O)NC(Cc2ccccc2)C(=O)O)cc1 (stereo unspecified) | inconclusive: 12.6 µM [activator, single point] | –
59 | C/C(=N\NC(=S)Nc1cccc(C)c1)c1cccc(N)c1 | inactive | –
60 | CCN(/C=N/S(=O)(=O)c1ccc(Cl)cc1)CC | inconclusive: 15.8 µM [activator, partial curve, poor fit] | –
61 | Cn1c(CCN2CCN(c3ccccn3)CC2)nc2cc(NS(=O)(=O)c3ccc(F)cc3)ccc21 | inactive | –
62 | Cc1cc(C)cc(NC(=O)CN2C(=O)C3CC=CCC3C2=O)c1 (stereo unspecified) | inconclusive: 5.01 µM [activator, single point] | –
63 | COc1ccc([N+](=O)[O-])cc1Nc1ncnc2ccccc12 | inconclusive: 3.98 µM [activator, single point] | –
64 | CC(=O)Nc1ccc(N=NC2C(=O)N(C(N)=S)N=C2C)cc1 (stereo unspecified) | inconclusive: 15.8 µM [activator, single point] | –
65 | O=c1c(S(=O)(=O)c2ccc(Cl)cc2)cn(Cc2cccc(F)c2)c2ccc(F)cc12 | inconclusive: 17.8 µM [activator, partial curve, poor fit] | –
66 | O=C(c1ccc(N2CCOCC2)c([N+](=O)[O-])c1)N1CCN(S(=O)(=O)c2cccs2)CC1 | inconclusive: 5.01 µM [activator, single point] | –
67 | Cc1ccc(NC(=O)CSC2=C(C#N)C(c3ccco3)C3=C(CCCC3=O)N2)cc1 (stereo unspecified) | inactive | –
68 | Cc1ccc(-c2nc(CS(=O)CC(=O)NC(C)CCc3ccccc3)c(C)o2)cc1 (stereo unspecified) | inconclusive: 5.01 µM [activator, single point] | –
69 | COc1ccc(/C(C)=N\NC(=O)CSc2nnc(C)s2)cc1 | inconclusive: 3.55 µM [activator, partial curve] | –
70 | Oc1ccc(/C=N/NC(=S)NC2CC3CCC2C3)cc1 (stereo unspecified) | inactive | –
71 | CC(=O)Nc1ccc(S(=O)(=O)N(C)CC(=O)OCC(=O)Nc2cc(C)on2)cc1 | inconclusive: 5.01 µM [activator, single point] | –

Entries shown so far that contain fluorine:
Row | SMILES | Potency | activation
9 | Nc1nc(SCC(=O)Nc2ccc(F)cc2)[nH]c(=O)c1NC(=O)c1ccc(F)c(F)c1 | inconclusive: 15.8 µM [activator, single point] | –
12 | CC(C)OCCCNC(=O)c1ccc(CS(=O)(=O)c2cccc(C(F)(F)F)c2)o1 | inconclusive: 28.2 µM [activator, single point] | –
18 | COc1ccc(S(=O)(=O)N2CCN(c3ccc(F)cc3)CC2)cc1OC | inconclusive: 5.01 µM [activator, single point] | –
19 | O=C(CSc1nnc2c(n1)[nH]c1ccc(F)cc12)Nc1ccccc1F | inconclusive: 1.41 µM [activator, partial curve, poor fit] | –
20 | CCOC(=O)N1CCN(c2ncc(C(F)(F)F)cc2Cl)CC1 | inconclusive: 3.98 µM [activator, partial curve, poor fit] | –
35 | COC(=O)c1ccc(C23CC4(C2)[C@H](CN(Cc2ccc(C(F)(F)F)cc2)[C@@H]4c2ccccc2)C3c2ccccc2)cc1 (stereo partly specified) | inactive | –
41 | O=C(COC(=O)/C=C/c1ccc(C(F)(F)F)cc1)NC1CCS(=O)(=O)C1 (stereo unspecified) | inactive | –
54 | COCCn1c(=N)c(S(=O)(=O)c2ccc(F)cc2)cc2c(=O)n3ccccc3nc21 | inactive | –
61 | Cn1c(CCN2CCN(c3ccccn3)CC2)nc2cc(NS(=O)(=O)c3ccc(F)cc3)ccc21 | inactive | –
65 | O=c1c(S(=O)(=O)c2ccc(Cl)cc2)cn(Cc2cccc(F)c2)c2ccc(F)cc12 | inconclusive: 17.8 µM [activator, partial curve, poor fit] | –
